According to PubChem BioAssay AID330 (DTP/NCI, 2004):
The list does not hold the whole screen: it gathers tests that were run many times, whatever their T/C, doses with no T/C, and many T/C values between a quarter and a half above the control. Further doses and runs are listed elsewhere. T/C is the treated group as % of the vehicle group. Some entries give survivors of the animals treated and no T/C: the source holds a T/C of zero for them, seemingly a mark for toxic or unscored doses. Some doses without a T/C left all or most animals alive at the check, yet need not have been tolerated: the source hardly ever lists a survival T/C far under the control, and the zero likely stands for such cases as well. Survivors were counted at the toxicity check, usually on the fifth day, unless a day is given; later deaths do not show. Schedule codes are those of the source, taken here to give the interval after Q, in days (D) or hours (H), and the number of doses after X. Some entries were tested several times; the results are listed from low to high. Some molecules as drawn cover several salts, stereoisomers or complexes of the source; a dose is that of the sample tested. Where survival is the endpoint, this PubChem deposit counts one and a half times the control or more as active, and values a quarter to a half above the control carry no call in these data; other NCI protocols may use other cut-offs. Marks such as (2×) count equal records among those shown. Some T/C values carry the count of animals alive at the toxicity check (mostly the fifth day); where none is given, no animal had died by that day.

Tested on: P388 leukemia ip, CD2F1 mice, survival T/C
Assay: NCI In Vivo Anticancer Drug Screen. Data for tumor model P388 Leukemia (intraperitoneal) in CD2F1 (CDF1) mice
Conditions: T/C endpoint: median survival time, higher T/C = longer survival
[1] = dose: 200.0 mg/kg/injection, schedule: Q01DX009 (ip), vehicle: saline with Tween-80
[2] = dose: 100.0 mg/kg/injection, schedule: Q01DX009 (ip), vehicle: Klucel (hydroxypropylcellulose) (HPC)
[3] = dose: 200.0 mg/kg/injection, schedule: Q01DX009 (ip), vehicle: Klucel (hydroxypropylcellulose) (HPC)
[4] = dose: 30.0 mg/kg/injection, schedule: Q01DX005 (ip), vehicle: saline with Tween-80
[5] = dose: 60.0 mg/kg/injection, schedule: Q01DX005 (ip), vehicle: saline with Tween-80
[6] = dose: 120.0 mg/kg/injection, schedule: Q01DX005 (ip), vehicle: saline with Tween-80
[7] = dose: 240.0 mg/kg/injection, schedule: Q01DX005 (ip), vehicle: saline with Tween-80
[8] = dose: 200.0 mg/kg/injection, schedule: Q01DX009 (ip), vehicle: saline
[9] = dose: 200.0 mg/kg/injection, schedule: Q01DX005 (ip), vehicle: saline with Tween-80
[10] = dose: 50.0 mg/kg/injection, schedule: Q01DX005 (ip), vehicle: saline
[11] = dose: 100.0 mg/kg/injection, schedule: Q01DX005 (ip), vehicle: saline
[12] = dose: 200.0 mg/kg/injection, schedule: Q01DX005 (ip), vehicle: saline
[13] = dose: 400.0 mg/kg/injection, schedule: Q01DX005 (ip), vehicle: saline
[14] = dose: 25.0 mg/kg/injection, schedule: Q01DX009 (ip), vehicle: Klucel (hydroxypropylcellulose) (HPC)
[15] = dose: 50.0 mg/kg/injection, schedule: Q01DX009 (ip), vehicle: Klucel (hydroxypropylcellulose) (HPC)

Cc1c(N)nc(C(CC(N)=O)NCC(N)C(N)=O)nc1C(=O)NC(C(=O)NC(C)C(O)CC(=O)NC(C(=O)NC(OC1OC(C)C(N)C(O)C1O)C(O)c1nc(-c2nc(C(=O)NCCCC(N)CC(=O)NCCCNCCCCN)cs2)cs1)C(C)O)C(OC1OC(CO)C(O)C(O)C1OC1OC(CO)C(O)C(OC(N)=O)C1O)c1cnc[nH]1 (stereo not drawn)
survivor count (dose: 3.6 mg/kg/injection, schedule: Q01DX009 (ip), vehicle: water): 6 of 6 | survivor count (dose: 4.0 mg/kg/injection, schedule: Q01DX009 (ip), vehicle: water): 6 of 6 | survivor count (dose: 6.0 mg/kg/injection, schedule: Q01DX009 (ip), vehicle: water): 3 of 6 and 6 of 6 | survivor count (dose: 8.0 mg/kg/injection, schedule: Q01DX009 (ip), vehicle: water): 5 of 6

COC(=O)c1ccc(SCCC(=O)CCl)cc1
survivor count [1]: 2 of 6

COC(=O)c1ccccc1N=C/C(Cl)=C(/Cl)C(=O)O
survivor count [2]: 5 of 6 | survivor count [3]: 0 of 6

CC(C)(C)NCC(O)CCl (stereo not drawn)
survivor count (dose: 400.0 mg/kg/injection, schedule: Q01DX009 (ip), vehicle: water): 1 of 6

CCNC(=O)C(CCO)NC(=O)OCc1ccccc1 (stereo not drawn)
T/C (dose: 100.0 mg/kg/injection, schedule: Q01DX009 (ip), vehicle: distilled water + Tween-80): 127 % of control | T/C (dose: 200.0 mg/kg/injection, schedule: Q01DX009 (ip), vehicle: distilled water + Tween-80): 138 % of control

Cc1nnc2c([N+](=O)[O-])c(N)c(Cl)nn12
survivor count [4]: 0 of 6 | survivor count [5]: 2 of 6 | survivor count [6]: 0 of 6 | survivor count [7]: 0 of 6

O=C(O)CSc1ncccc1Nc1ccc([N+](=O)[O-])cn1
survivor count [8]: 4 of 6

NC(N)=NS(=O)(=O)c1ccc(N=c2c3ccccc3n(Cc3ccccc3)c3ccccc23)cc1
survivor count [9]: 2 of 6

O=C1OC(C2OC(=O)C(=O)C2C(=O)c2ccccc2Cl)C(C(=O)c2ccccc2Cl)C1=O (stereo not drawn)
survivor count (dose: 60.0 mg/kg/injection, schedule: Q01DX005 (ip), vehicle: saline + Tween-80 + alcohol): 5 of 6 and 6 of 6 | survivor count (dose: 120.0 mg/kg/injection, schedule: Q01DX005 (ip), vehicle: saline + Tween-80 + alcohol): 2 of 6 | survivor count (dose: 240.0 mg/kg/injection, schedule: Q01DX005 (ip), vehicle: saline + Tween-80 + alcohol): 0 of 6

NC(=O)c1c[se]c(C2OC(CO)C(O)C2O)n1 (stereo not drawn)
T/C (dose: 25.0 mg/kg/injection, schedule: Q01DX005 (ip), vehicle: saline): 134 and 146 % of control | T/C [10]: 148, 158, 160, 168 % of control | T/C [11]: 157, 161, 173, 178 % of control | T/C [12]: 163, 175 (2×), 196 % of control | T/C [13]: 184, 187, 196 % of control | survivor count [13]: 6 of 6

CN1C2CCC1CC(Cl)C2 (stereo not drawn)
survivor count [10]: 0 of 6 | survivor count (dose: 60.0 mg/kg/injection, schedule: Q01DX005 (ip), vehicle: saline): 0 of 5 | survivor count [11]: 0 of 6 | survivor count (dose: 120.0 mg/kg/injection, schedule: Q01DX005 (ip), vehicle: saline): 0 of 5 | survivor count [12]: 0 of 6 | survivor count (dose: 240.0 mg/kg/injection, schedule: Q01DX005 (ip), vehicle: saline): 0 of 4

O=C(CCSC1=NCCCN1)c1ccc(F)cc1
T/C (dose: 12.5 mg/kg/injection, schedule: Q01DX009 (ip), vehicle: saline with Tween-80): 128 % of control | survivor count (dose: 50.0 mg/kg/injection, schedule: Q01DX009 (ip), vehicle: saline with Tween-80): 2 of 6 | survivor count (dose: 100.0 mg/kg/injection, schedule: Q01DX009 (ip), vehicle: saline with Tween-80): 0 of 6 | survivor count [1]: 0 of 6

Cn1ncc2c(Cl)ncnc21
survivor count (dose: 400.0 mg/kg/injection, schedule: Q01DX009 (ip), vehicle: Klucel (hydroxypropylcellulose) (HPC)): 1 of 6

C=C1CCN(c2ccccc2Cl)C1=O
T/C (dose: 16.0 mg/kg/injection, schedule: Q01DX009 (ip), vehicle: saline + alcohol): 125 % of control | T/C (dose: 64.0 mg/kg/injection, schedule: Q01DX009 (ip), vehicle: saline + alcohol): 125 % of control

O=C(O)CCCSC(=S)c1ccccc1
survivor count [2]: 6 of 6

COC(=O)Cn1/c(=N\N=C\c2ccc([N+](=O)[O-])cc2)sc2ccccc21
survivor count (dose: 100.0 mg/kg/injection, schedule: Q01DX001 (ip), vehicle: saline with Tween-80): 6 of 6 | survivor count (dose: 200.0 mg/kg/injection, schedule: Q01DX001 (ip), vehicle: saline with Tween-80): 6 of 6

CCCCC/C(=C/C=C/c1ccc(Cl)cc1)CN(C)C
survivor count [3]: 1 of 6

CC(C)CCC(=O)OCCN1CCN(CCCN2c3ccccc3Sc3ccc(C(F)(F)F)cc32)CC1
T/C (dose: 12.5 mg/kg/injection, schedule: Q01DX009 (ip), vehicle: Klucel (hydroxypropylcellulose) (HPC)): 134 % of control | T/C [14]: 129 % of control | survivor count [14]: 6 of 6 | T/C [15]: 122 % of control [5 of 6 alive] | survivor count [15]: 2 of 6, 3 of 6, 6 of 6 | survivor count [2]: 0 of 6, 3 of 6, 4 of 6 | survivor count [3]: 0 of 6

COc1ccc(/C(C[P+](c2ccccc2)(c2ccccc2)c2ccccc2)=N/OC(C)(C)OC)cc1
survivor count [2]: 0 of 6 | survivor count [3]: 0 of 6

C/C(=N\NC(=S)N1CCC(C)CC1)c1ncccn1
survivor count (dose: 50.0 mg/kg/injection, schedule: Q04DX003 (ip), vehicle: Klucel (hydroxypropylcellulose) (HPC)): 6 of 6 | survivor count (dose: 100.0 mg/kg/injection, schedule: Q04DX003 (ip), vehicle: Klucel (hydroxypropylcellulose) (HPC)): 0 of 6 | survivor count (dose: 200.0 mg/kg/injection, schedule: Q04DX003 (ip), vehicle: Klucel (hydroxypropylcellulose) (HPC)): 0 of 6 | survivor count (dose: 400.0 mg/kg/injection, schedule: Q04DX003 (ip), vehicle: Klucel (hydroxypropylcellulose) (HPC)): 0 of 6

C[C@]12CC[C@H]3C(=CCc4cc(O)ccc43)[C@@H]1C/C(=N\O)C2=O
T/C (dose: 400.0 mg/kg/injection, schedule: Q01DX009 (ip), vehicle: saline with Tween-80): 135 % of control

CC(C)(C)/C=C/N1CCN=N1
survivor count (dose: 100.0 mg/kg/injection, schedule: Q01DX005 (ip), vehicle: saline with Tween-80): 0 of 5 | survivor count [9]: 0 of 5

CC(C)(C)c1ccc(C(=O)NNC(O)C(F)(F)F)cc1 (stereo not drawn)
survivor count (dose: 400.0 mg/kg/injection, schedule: Q04DX002 (ip), vehicle: Klucel (hydroxypropylcellulose) (HPC)): 0 of 6

COC(=O)c1cn(C2OC(CO)C(O)C2O)c2ncnc(N)c12 (stereo not drawn)
survivor count [4]: 6 of 6 | survivor count [5]: 1 of 6 | survivor count [6]: 3 of 6 | survivor count [7]: 0 of 6

COc1cccc(CN2CCCNCC2)c1
survivor count (dose: 100.0 mg/kg/injection, schedule: Q01DX009 (ip), vehicle: water): 3 of 6

COc1ccc(CCN)cc1
survivor count (dose: 100.0 mg/kg/injection, schedule: Q01DX009 (ip), vehicle: saline): 2 of 6 | survivor count [8]: 0 of 6 | survivor count (dose: 400.0 mg/kg/injection, schedule: Q01DX009 (ip), vehicle: saline): 0 of 6 | survivor count (dose: 600.0 mg/kg/injection, schedule: Q01DX009 (ip), vehicle: saline): 0 of 6

Cc1cccn2c(N=O)cnc12
survivor count (dose: 200.0 mg/kg/injection, schedule: Q04DX003 (ip), vehicle: saline with Tween-80): 2 of 6 | survivor count (dose: 400.0 mg/kg/injection, schedule: Q04DX003 (ip), vehicle: saline with Tween-80): 0 of 6

CC1C(=O)CCC2(C)CCC3C(OC(=O)C3(C)[Se]c3ccccc3)C12 (stereo not drawn)
survivor count (dose: 400.0 mg/kg/injection, schedule: Q04DX002 (ip), vehicle: saline with Tween-80): 3 of 6

CSc1cccc(NC(=O)Nc2onc(C)c2C)c1
survivor count [2]: 6 of 6 | survivor count [3]: 6 of 6
